Results are given in words; binding and its absence hold for the method and conditions named. Binding seen in cells or lysates may run through a third protein. Some binding calls cover weakened binding; strength is not graded here.
Target: Flag-RCOR1 (UniProt Q9UKL0)
Experiment: co-IP; Flag-tagged bait stably expressed in H209, H69 and H526 cells; endogenous partner detected

The chains behind the UniProt entries cited, without tags or fusion partners.
UniProt Q9UKL0: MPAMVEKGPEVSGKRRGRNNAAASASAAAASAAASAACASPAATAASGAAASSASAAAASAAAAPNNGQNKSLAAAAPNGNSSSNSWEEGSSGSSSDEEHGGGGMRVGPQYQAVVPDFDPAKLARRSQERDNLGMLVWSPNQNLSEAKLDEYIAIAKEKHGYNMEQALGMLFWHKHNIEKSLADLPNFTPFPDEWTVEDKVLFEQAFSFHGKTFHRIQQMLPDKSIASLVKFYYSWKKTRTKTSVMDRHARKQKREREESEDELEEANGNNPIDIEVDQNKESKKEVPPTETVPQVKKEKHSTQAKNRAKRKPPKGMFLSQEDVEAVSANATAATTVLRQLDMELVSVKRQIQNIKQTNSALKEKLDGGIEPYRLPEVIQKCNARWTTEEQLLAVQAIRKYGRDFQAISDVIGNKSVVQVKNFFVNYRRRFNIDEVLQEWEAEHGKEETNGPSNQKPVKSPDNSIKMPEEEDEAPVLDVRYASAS

B1: endogenous E2F7 (protein, UniProt Q96AV8 1-911)
chain: MEVNCLTLKDLISPRQPRLDFAVEDGENAQKENIFVDRSRMAPKTPIKNEPIDLSKQKKFTPERNPITPVKFVDRQQAEPWTPTANLKMLISAASPDIRDREKKKGLFRPIENKDDAFTDSLQLDVVGDSAVDEFEKQRPSRKQKSLGLLCQKFLARYPSYPLSTEKTTISLDEVAVSLGVERRRIYDIVNVLESLHLVSRVAKNQYGWHGRHSLPKTLRNLQRLGEEQKYEEQMAYLQQKELDLIDYKFGERKKDGDPDSQEQQLLDFSEPDCPSSSANSRKDKSLRIMSQKFVMLFLVSKTKIVTLDVAAKILIEESQDAPDHSKFKTKVRRLYDIANVLTSLALIKKVHVTEERGRKPAFKWIGPVDFSSSDEELVDVSASVLPELKRETYGQIQVCAKQKLARHGSFNTVQASERIQRKVNSEPSSPYREEQGSGGYSLEIGSLAAVYRQKIEDNSQGKAFASKRVVPPSSSLDPVAPFPVLSVDPEYCVNPLAHPVFSVAQTDLQAFSMQNGLNGQVDVSLASAASAVESLKPALLAGQPLVYVPSASLFMLYGSLQEGPASGSGSERDDRSSEAPATVELSSAPSAQKRLCEERKPQEEDEPATKRQSREYEDGPLSLVMPKKPSDSTDLASPKTMGNRASIPLKDIHVNGQLPAAEEISGKATANSLVSSEWGNPSRNTDVEKPSKENESTKEPSLLQYLCVQSPAGLNGFNVLLSGSQTPPTVGPSSGQLPSFSVPCMVLPSPPLGPFPVLYSPAMPGPVSSTLGALPNTGPVNFSLPGLGSIAQLLVGPTAVVNPKSSTLPSADPQLQSQPSLNLSPVMSRSHSVVQQPESPVYVGHPVSVVKLHQSPVPVTPKSIQRTHRETFFKTPGSLGDPVLKRRERNQSRNTSSAQRRLEIPSGGAD
binding: binds

Reference: article PMC10516997
